Test results published in patent EP1881007A1.
These are yes or no findings as the source states them, for the method shown. Some binding calls cover weakened binding; strength is not graded here.

The chains behind the UniProt entries cited, without tags or fusion partners.
UniProt Q99816: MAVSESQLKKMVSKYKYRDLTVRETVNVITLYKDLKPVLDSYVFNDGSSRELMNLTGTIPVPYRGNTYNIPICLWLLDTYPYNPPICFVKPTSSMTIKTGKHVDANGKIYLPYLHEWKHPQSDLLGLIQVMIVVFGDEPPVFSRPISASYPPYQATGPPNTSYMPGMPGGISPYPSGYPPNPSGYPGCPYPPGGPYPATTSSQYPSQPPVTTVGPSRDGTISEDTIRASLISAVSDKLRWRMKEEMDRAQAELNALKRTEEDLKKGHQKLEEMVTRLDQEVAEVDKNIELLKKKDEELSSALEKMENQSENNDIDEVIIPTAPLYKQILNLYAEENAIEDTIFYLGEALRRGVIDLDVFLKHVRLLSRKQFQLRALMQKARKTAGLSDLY

Biological target: TSG101 (UniProt Q99816)
Assay: yeast two hybrid screening

B1: DINO polypeptide (enzyme)
chain: MYFCWGADSRELQRRRTAGSPGAELLQAASGERHSLLLLTNHRVLSCGDNSRGQLGRRGAQRGELPEPIQALETLIVDLVSCGKEHSLAVCHKGRVFAWGAGSEGQLGIGEFKEISFTPKKIMTLNDIKIIQVSCGHYHSLALSKDSQVFSWGKNSHGQLGLGKEFPSQASPQRVRSLEGIPLAQVAAGGAHSFALSLCGTSFGWGSNSAGQLALSGRNVPVQSNKPLSVGALKNLGVVYISCGDAHTAVLTQDGKVFTFGDNRSGQLGYSPTPEKRGPQLVERIDGLVSQIDCGSYHTLAYVHTTGQVVSFGHGPSDTSKPTHPEALTENFDISCLISAEDFVDVQVKHIFAGTYANFVTTHQDTSSTRAPGKTLPEISRISQSMAEKWIAVKRRSTEHEMAKSEIRMIFSSPACLTASFLKKRGTGETTSIDVDLEMARDTFKKLTKKEWISSMITTCLEDDLLRALPCHSPHQEALSVFLLLPECPVMHDSKNWKNLVVPFAKAVCEMSKQSLQVLKKCWAFLQESSLNPLIQMLKAAIISQLLHQTKTEQDHCNVKALLGMMKELHKVNKANCRLPENTFNINELSNLLNFYIDRGRQLFRDNHLIPAETPSPVIFSDFPFIFNSLSKIKLLQADSHIKMQMSEKKAYMLMHETILQKKDEFPPSPRFILRVRRSRLVKDALRQLSQAEATDFCKVLVVEFINEICPESGGVSSEFFHCMFEEMTKPEYGMFMYPEMGSCMWFPAKPKPEKKRYFLFGMLCGLSLFNLNVANLPFPLALYKKLLDQKPSLEDLKELSPRLGKSLQEVLDDAADDIGDALCIRFSIHWDQNDVDLIPNGISIPVDQTNKRDYVSKYIDYIFNVSVKAVYEEFQRGFYRVCEKEILRHFYPEELMTGIIGNTDYDWKQFEQNSKYEQGYQKSHPTIQLFWKAFHKLTLDEKKKFLFFLTGRDRLHARGIQKMEIVFRCPETFSERDHPTSITCHNILSLPKYSTMERMEEALQVAINNNRGFVSPMLTQS
In the case of B1, the binding is reported as “binds”.
